Legend:
[1] = target: T1, BiFC nYFP-NINJA (Arabidopsis NINJA with N-terminal Venus aa 1-173; pDESTnYFP-NINJA) (Arabidopsis); experiment: BiFC in Nicotiana benthamiana leaves
T1 construct: Transiently expressed in Nicotiana benthamiana leaves
T1 chain: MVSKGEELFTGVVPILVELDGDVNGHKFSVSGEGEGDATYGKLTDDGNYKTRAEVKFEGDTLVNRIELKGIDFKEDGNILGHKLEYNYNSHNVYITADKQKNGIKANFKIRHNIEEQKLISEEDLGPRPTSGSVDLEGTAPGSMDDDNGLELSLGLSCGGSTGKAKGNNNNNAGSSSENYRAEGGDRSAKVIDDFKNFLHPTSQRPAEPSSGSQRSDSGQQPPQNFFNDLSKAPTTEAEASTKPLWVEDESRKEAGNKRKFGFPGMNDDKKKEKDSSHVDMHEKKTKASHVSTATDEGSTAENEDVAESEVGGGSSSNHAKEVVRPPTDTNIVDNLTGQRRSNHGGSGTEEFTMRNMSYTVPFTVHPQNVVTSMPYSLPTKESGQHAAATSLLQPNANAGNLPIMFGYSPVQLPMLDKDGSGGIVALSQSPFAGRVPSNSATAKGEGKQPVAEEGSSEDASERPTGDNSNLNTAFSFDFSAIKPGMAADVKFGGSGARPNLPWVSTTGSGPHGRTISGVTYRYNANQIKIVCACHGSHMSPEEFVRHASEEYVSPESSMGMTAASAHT
Description: (§1) Transient BiFC experiments were performed using combinations of pDESTnYFP and pDESTcYFP plasmids, with or without plasmids for the expression of NINJA (pRSh1-NINJA) or TPL (pRSh1-TPL) and Agrobacterium-infiltration of Nicotiana benthamiana leaves. For infiltration Agrobacterium tumefaciens GV3101 strains containing the binary vectors were re-suspended from plates and prepared for transformation as described for the LUC assay. All YFP and expression strains were mixed in ratios of 1:1 (vol/vol) with the addition of strain P19 at 1/10th volume. Five leaf discs were sampled from each infiltrated leaf after 40 h. Two hours prior to sampling for microscopic fluorescence observations leaves were infiltrated with a 1 μg/ml DAPI solution to stain nuclei. YFP fluorescence and DAPI staining was detected using an Olympus Fluoview FV10i confocal laser scanning microscope. Each experiment was repeated twice.

[2] = target: T2, BiFC nYFP-BZR1 (Arabidopsis BZR1 with N-terminal Venus aa 1-173; pDESTnYFP-BZR1) (Arabidopsis); experiment: BiFC in immature Nicotiana benthamiana leaves; the filing reads the interaction as indirect, through NINJA and TPL
T2 construct: Transiently expressed in Nicotiana benthamiana leaves
T2 chain: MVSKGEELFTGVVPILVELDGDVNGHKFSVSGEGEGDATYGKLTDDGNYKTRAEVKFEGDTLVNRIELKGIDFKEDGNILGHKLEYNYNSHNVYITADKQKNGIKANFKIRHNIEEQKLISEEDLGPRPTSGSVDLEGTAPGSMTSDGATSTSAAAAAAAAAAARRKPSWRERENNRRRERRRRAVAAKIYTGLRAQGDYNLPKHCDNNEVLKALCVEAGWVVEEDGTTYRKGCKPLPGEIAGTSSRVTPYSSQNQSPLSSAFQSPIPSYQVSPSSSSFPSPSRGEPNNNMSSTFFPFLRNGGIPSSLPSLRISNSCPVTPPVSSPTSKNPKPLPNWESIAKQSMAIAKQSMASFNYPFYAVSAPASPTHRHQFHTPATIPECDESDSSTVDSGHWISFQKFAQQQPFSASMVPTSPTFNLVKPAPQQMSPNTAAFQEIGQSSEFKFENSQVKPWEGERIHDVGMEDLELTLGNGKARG
Description: as §1
(§2) To determine the molecular function of the PPD proteins the interactions of PPD1, NINJA, TPL, and BZR1 were studied in planta. […] The NINJA-binding TIFY motif in PPD1 was essential for this interaction. Moreover, no interaction was observed when nYFP-PPD1 and cYFP-BZR1 were co-expressed in fully expanded leaves (FIG. 8C). […]

[3] = target: T2, BiFC nYFP-BZR1 (Arabidopsis BZR1 with …); experiment: BiFC in fully expanded Nicotiana benthamiana leaves with NINJA and TPL co-expressed
Description: as §1, §2

B1: BiFC cYFP-PPD1 (Arabidopsis PPD1 with N-terminal Venus aa 156-239; pDESTcYFP-PPD1) (other)
chain: MDKQKNGIKANFKIRHNIEDGGVQLADHYQQNTPIGDGPVLLPDNHYLSYQSALSKDPNEKRDHMVLLEFVTAAGITLGMDELYKYPYDVPDYAGPRPTSGSVDLEGTAPGSMDVGVSPAKSILAKPLKLLTEEDISQLTREDCRKFLKDKGMRRPSWNKSQAIQQVLSLKALYEPGDDSGAGIFRKILVSQPVNPPRVTTTLIEPSNELEACGRVSYPEDNGACHRMDSPRSAEFSGGSGHFVSEKDGHKTTISPRSPAETSELVGQMTIFYSGKVNVYDGIPPEKARSIMHFAANPIDLPENGIFASSRMISKLISKEKMMELPQKGLEKANSSRDSGMEGQANRKVSLQRYREKRKDRKFSKAKKCPGVASSSLEMFLNCQPRMKAAYSQNLGCTGSPLHSQSPESQTKSPNLSVDLNSEGI
notes: Transiently expressed in Nicotiana benthamiana leaves
binding result [1]: binds | binding result [2]: binds

B2: BiFC cYFP-PPD1-tify (PPD1Δtify, internal deletion of aa 154-186 of PPD1, with N-terminal Venus aa 156-239; pDESTcYFP-PPD1Δtify) (other)
chain: MDKQKNGIKANFKIRHNIEDGGVQLADHYQQNTPIGDGPVLLPDNHYLSYQSALSKDPNEKRDHMVLLEFVTAAGITLGMDELYKYPYDVPDYAGPRPTSGSVDLEGTAPGSMDVGVSPAKSILAKPLKLLTEEDISQLTREDCRKFLKDKGMRRPSWNKSQAIQQVLSLKALYEPGDDSGAGIFRKILVSQPVNPPRVTTTLIEPSNELEACGRVSYPEDNGACHRMDSPRSAEFSGGSGHFVSEKDGHKTTISPRSPAETSELIMHFAANPIDLPENGIFASSRMISKLISKEKMMELPQKGLEKANSSRDSGMEGQANRKVSLQRYREKRKDRKFSKAKKCPGVASSSLEMFLNCQPRMKAAYSQNLGCTGSPLHSQSPESQTKSPNLSVDLNSEGI
notes: Transiently expressed in Nicotiana benthamiana leaves; also called PPD1 with the TIFY motif deleted
binding result [3]: no binding
